Reference: patent US6846660B2, “Method of making an aldehyde dehydrogenase with gluconobacter” (Roche Vitamins Inc., priority 1997, dated 2005)
At least one compound was matched to its structure with a doubt left.

Target: T1, aldehyde dehydrogenase (ADH) (Ketogulonicigenium vulgare, UniProt Q402A8)
T1 sequence (Q402A8 32-609): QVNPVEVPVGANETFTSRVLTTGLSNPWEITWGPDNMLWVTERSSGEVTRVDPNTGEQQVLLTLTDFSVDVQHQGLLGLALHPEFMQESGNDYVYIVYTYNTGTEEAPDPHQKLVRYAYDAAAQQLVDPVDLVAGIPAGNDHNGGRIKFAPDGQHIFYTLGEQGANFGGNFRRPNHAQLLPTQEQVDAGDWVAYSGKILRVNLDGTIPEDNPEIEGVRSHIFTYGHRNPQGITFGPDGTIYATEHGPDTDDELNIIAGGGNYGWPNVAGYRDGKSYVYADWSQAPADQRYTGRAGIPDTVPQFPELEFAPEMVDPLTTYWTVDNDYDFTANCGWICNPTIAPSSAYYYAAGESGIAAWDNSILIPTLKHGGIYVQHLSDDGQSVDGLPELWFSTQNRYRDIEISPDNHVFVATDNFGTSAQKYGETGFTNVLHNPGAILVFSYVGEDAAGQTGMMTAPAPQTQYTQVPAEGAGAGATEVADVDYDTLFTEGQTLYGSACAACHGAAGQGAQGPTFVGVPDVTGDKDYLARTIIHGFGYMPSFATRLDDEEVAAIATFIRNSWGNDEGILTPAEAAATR
Assay: Electron acceptor suitability for oxidation of L-sorbosone to 2-KGA
Format: biochemical, Gluconobacter oxydans DSM No. 4025 (FERM BP-3812)
Details: oxidation of L-sorbosone to 2-KGA by purified ADH
Excerpt: This was affirmed by the failure of the enzyme to convert L-sorbosone to 2-KGA using oxygen as a possible electron acceptor. Furthermore, no oxygen consumption was detected in the reaction mixture as detected with a dissolved oxygen probe. […] However, other conventional electron acceptors can be utilized in conjunction with the enzyme of this invention. DCIP, PMS, ferricyanide and cytochrome c are preferred electron acceptors. There is no minimum amount of electron acceptor which must be present for at least some of the aldehyde substrate to be converted to its corresponding acid. However, the amount of substrate which can be oxidized depends on the amount of the particular electron acceptor and its electron accepting characteristics.

NC(=O)c1ccc[n+]([C@@H]2O[C@H](COP(=O)([O-])OP(=O)(O)OC[C@H]3O[C@@H](n4cnc5c(N)ncnc54)[C@H](O)[C@@H]3O)[C@@H](O)[C@H]2O)c1 [NAD, nicotinamide adenine dinucleotide]
suitability as electron acceptor: not suitable electron acceptors
